{
  "source": "paper PMC10931528",
  "binders": {"B1": {"name": "MepS (enzyme, UniProt P0AFV4 27-188)", "chain": "CSANNTAKNMHPETRAVGSETSSLQASQDEFENLVRNVDVKSRIMDQYADWKGVRYRLGGSTKKGIDCSGFVQRTFREQFGLELPRSTYEQQEMGKSVSRSNLRTGDLVLFRAGSTGRHVGIYIGNNQFVHASTSSGVIISSMNEPYWKKRYNEARRVLSRS"}, "B2": {"name": "Prc-HA (enzyme, UniProt P23865 23-682)", "chain": "VEDITRADQIPVLKEETQHATVSERVTSRFTRSHYRQFDLDQAFSAKIFDRYLNLLDYSHNVLLASDVEQFAKKKTELGDELRSGKLDVFYDLYNLAQKRRFERYQYALSVLEKPMDFTGNDTYNLDRSKAPWPKNEAELNALWDSKVKFDELSLKLTGKTDKEIRETLTRRYKFAIRRLAQTNSEDVFSLAMTAFAREIDPHTNYLSPRNTEQFNTEMSLSLEGIGAVLQMDDDYTVINSMVAGGPAAKSKAISVGDKIVGVGQTGKPMVDVIGWRLDDVVALIKGPKGSKVRLEILPAGKGTKTRTVTLTRERIRLEDRAVKMSVKTVGKEKVGVLDIPGFYVGLTDDVKVQLQKLEKQNVSSVIIDLRSNGGGALTEAVSLSGLFIPAGPIVQVRDNNGKVREDSDTDGQVFYKGPLVVLVDRFSASASEIFAAAMQDYGRALVVGEPTFGKGTVQQYRSLNRIYDQMLRPEWPALGSVQYTIQKFYRVNGGSTQRKGVTPDIIMPTGNEETETGEKFEDNALPWDSIDAATYVKSGDLTAFEPELLKEHNARIAKDPEFQNIMKDIARFNAMKDKRNIVSLNYAVREKENNEDDATRLARLNERFKREGKPELKKLDDLPKDYQEPDPYLDETVNIALDLAKLEKARPAEQPAPVK"}, "B3": {"name": "MltD-Flag, P0AEZ7 16-452 (enzyme)", "chain": "CQSTGNVQQHAQSLSAAGQGEAAKFTSQARWMDDGTSIAPDGDLWAFIGDELKMGIPENDRIREQKQKYLRNKSYLHDVTLRAEPYMYWIAGQVKKRNMPMELVLLPIVESAFDPHATSGANAAGIWQIIPSTGRNYGLKQTRNYDARRDVVASTTAALNMMQRLNKMFDGDWLLTVAAYNSGEGRVMKAIKTNKARGKSTDFWSLPLPQETKQYVPKMLALSDILKNSKRYGVRLPTTDESRALARVHLSSPVEMAKVADMAGISVSKLKTFNAGVKGSTLGASGPQYVMVPKKHADQLRESLASGEIAAVQSTLVADNTPLNSRVYTVRSGDTLSSIASRLGVSTKDLQQWNKLRGSKLKPGQSLTIGAGSSAQRLANNSDSITYRVRKGDSLSSIAKRHGVNIKDVMRWNSDTANLQPGDKLTLFVKNNNMPDS"}},
  "key": {"NlpI-His (E. coli)": {"biological_target": "NlpI-His (E. coli) (UniProt P0AFB1)", "experiment": "pull-down; in vivo pull-down in E. coli; plasmid-borne NlpI-His (Para::nlpI-His) as bait; MltD-Flag tested, Prc-HA and MepS as positive controls; details in SI"}, "[1]": {"biological_target": "T1, NlpI-His (E. coli), P0AFB1", "T1 chain": "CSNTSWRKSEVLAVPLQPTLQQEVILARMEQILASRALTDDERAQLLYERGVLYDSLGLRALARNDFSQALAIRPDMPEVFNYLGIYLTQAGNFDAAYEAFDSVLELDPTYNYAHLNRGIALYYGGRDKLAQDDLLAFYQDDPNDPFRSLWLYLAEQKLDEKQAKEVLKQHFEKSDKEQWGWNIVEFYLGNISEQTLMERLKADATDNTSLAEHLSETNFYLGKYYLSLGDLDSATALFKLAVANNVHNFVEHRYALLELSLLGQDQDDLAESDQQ", "experiment": "pull-down; in vivo pull-down in E. coli; plasmid-borne NlpI-His (Para::nlpI-His) as bait; MltD-Flag tested, Prc-HA and MepS as positive controls; details in SI", "settings": "remark: other sources report otherwise"}},
  "note": "These are yes or no findings as the source states them, for the method shown. Binding seen in cells or lysates may run through a third protein. Some binding calls cover weakened binding; strength is not graded here. Sequences can lack the tags named with a protein.",
  "data": [
    {"binder": "B1", "values": [
      {"measurement": "binding", "setting": "NlpI-His (E. coli)", "result": "binds"}
    ]},
    {"binder": "B2", "values": [
      {"measurement": "binding", "setting": "NlpI-His (E. coli)", "result": "binds"}
    ]},
    {"binder": "B3", "values": [
      {"measurement": "binding", "setting": "[1]", "result": "no binding"}
    ]}
  ]
}
